In paper PMC12350170, “Structural basis for the synergistic assembly of the snRNA export complex” (Nature Structural & Molecular Biology, 2025):
These are yes or no findings as the source states them, for the method shown. In cells and extracts the contact can be indirect. These calls come from enrichment with a bait or labelling near it, and not all partners need be listed.

By UniProt entry, the sequences of proteins in these tests, tags left out. Where a name states a change or a piece, a line headed by the entry shows the natural chain unless it says otherwise.
UniProt Q9JJT9: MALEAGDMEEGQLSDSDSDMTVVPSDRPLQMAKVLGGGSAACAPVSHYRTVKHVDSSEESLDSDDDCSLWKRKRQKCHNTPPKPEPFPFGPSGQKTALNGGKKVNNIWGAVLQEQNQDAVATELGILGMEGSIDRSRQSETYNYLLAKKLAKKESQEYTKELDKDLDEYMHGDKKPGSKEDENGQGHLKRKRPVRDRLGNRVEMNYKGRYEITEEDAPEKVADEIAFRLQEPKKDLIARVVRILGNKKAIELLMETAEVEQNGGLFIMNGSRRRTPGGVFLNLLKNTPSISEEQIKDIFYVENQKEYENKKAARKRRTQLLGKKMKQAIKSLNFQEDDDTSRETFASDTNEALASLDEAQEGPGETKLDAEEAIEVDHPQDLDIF
UniProt Q6P5F9: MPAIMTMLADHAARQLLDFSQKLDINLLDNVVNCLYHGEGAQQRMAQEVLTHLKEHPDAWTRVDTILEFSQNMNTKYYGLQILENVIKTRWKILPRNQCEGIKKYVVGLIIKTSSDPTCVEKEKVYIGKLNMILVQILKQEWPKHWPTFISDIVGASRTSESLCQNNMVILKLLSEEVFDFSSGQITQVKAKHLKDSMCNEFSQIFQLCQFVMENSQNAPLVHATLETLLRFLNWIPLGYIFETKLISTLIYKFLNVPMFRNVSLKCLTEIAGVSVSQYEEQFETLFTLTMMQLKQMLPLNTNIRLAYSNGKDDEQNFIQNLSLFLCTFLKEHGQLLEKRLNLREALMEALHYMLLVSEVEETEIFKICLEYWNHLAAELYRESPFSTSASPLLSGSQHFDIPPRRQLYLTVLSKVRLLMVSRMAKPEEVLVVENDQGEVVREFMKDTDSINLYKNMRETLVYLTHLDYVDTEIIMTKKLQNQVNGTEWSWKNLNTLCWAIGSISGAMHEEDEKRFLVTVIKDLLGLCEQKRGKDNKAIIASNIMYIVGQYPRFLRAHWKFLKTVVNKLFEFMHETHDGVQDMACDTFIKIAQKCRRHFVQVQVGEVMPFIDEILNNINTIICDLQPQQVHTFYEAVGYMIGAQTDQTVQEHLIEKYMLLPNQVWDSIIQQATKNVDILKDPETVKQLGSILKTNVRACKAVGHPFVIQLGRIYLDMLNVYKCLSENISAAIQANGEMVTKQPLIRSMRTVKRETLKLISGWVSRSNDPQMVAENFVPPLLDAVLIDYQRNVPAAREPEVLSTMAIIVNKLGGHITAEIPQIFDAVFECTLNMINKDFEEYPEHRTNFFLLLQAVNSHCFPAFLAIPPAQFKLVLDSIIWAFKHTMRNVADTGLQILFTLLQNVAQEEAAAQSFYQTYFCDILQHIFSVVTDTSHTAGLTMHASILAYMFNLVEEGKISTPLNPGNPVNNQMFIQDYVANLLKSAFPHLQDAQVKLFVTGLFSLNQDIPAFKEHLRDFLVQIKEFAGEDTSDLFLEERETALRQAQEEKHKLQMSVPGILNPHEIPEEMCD

Assays:
[1] = target: MYC-mTurbo-PHAX E9R (mouse) (mouse) (UniProt Q9JJT9); test: proximity labelling; MYC-mTurbo-PHAX variants in HA-dTAG-PHAX mES cells; dTAG^V-1 4 h to deplete endogenous PHAX, 50 µM biotin 4 h; streptavidin beads, western blot of CBP20, CBP80, Ran, CRM1, ARS2
[2] = target: MYC-mTurbo-PHAX WT (mouse) (mouse) (UniProt Q9JJT9); test: as above

binding [1]: binds
binding [2]: binds
Substance: Endogenous mouse CRM1 (from UniProt Q6P5F9 1-1071)
